Results: paper PMC9076621
Results are given in words; binding and its absence hold for the method and conditions named. In cells and extracts the contact can be indirect. Some binding calls cover weakened binding; strength is not graded here.

By UniProt entry, the sequences of proteins in these tests, tags left out. Residues count along the entry.
UniProt P09429: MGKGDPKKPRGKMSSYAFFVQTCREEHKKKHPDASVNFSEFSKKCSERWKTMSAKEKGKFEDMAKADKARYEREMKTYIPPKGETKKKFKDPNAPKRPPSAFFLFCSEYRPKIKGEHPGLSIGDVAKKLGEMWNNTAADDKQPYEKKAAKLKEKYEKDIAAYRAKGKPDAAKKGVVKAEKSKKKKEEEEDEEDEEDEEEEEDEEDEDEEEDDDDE
UniProt P29323, residues 19-1055: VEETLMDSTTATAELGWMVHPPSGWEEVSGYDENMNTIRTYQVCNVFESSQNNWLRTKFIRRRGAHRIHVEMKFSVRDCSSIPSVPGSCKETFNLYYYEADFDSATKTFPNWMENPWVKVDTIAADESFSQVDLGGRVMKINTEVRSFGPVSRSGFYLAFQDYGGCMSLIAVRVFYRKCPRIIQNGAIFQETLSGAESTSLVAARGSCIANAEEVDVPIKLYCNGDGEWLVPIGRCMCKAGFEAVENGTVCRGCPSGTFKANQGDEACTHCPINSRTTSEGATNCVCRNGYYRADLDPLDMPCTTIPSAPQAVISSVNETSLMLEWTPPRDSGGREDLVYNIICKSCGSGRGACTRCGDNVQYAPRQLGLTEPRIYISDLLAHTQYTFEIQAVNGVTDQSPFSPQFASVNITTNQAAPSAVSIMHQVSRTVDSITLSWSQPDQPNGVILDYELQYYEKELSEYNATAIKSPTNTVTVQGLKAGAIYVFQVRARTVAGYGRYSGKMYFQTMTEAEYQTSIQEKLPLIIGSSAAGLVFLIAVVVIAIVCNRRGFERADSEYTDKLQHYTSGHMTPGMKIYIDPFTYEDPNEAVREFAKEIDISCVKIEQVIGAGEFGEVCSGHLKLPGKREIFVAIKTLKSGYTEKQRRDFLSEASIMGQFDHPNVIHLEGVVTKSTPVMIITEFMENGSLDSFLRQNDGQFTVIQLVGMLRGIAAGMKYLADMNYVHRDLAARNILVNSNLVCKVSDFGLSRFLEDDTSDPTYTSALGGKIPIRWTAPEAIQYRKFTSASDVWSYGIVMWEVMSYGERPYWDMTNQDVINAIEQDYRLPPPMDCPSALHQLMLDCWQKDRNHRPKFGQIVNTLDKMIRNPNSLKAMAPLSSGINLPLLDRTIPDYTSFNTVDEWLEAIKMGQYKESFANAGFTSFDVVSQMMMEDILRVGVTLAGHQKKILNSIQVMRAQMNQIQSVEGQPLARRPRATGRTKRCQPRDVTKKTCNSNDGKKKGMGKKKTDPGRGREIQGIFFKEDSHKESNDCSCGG

Target: high mobility group box-1 (HMGB1) (human (endogenous in HAECs)) (UniProt P09429)
Assay: co-IP; HAEC lysates in 0.5% Triton X-100 with protease and phosphatase inhibitors; anti-HMGB1 antibody (5 ug; IgG as control) on protein A/G magnetic beads, overnight at 4 °C, three washes with lysis buffer; immunoblot; cells under LSS or transfected with pri-EPHB2

- binding: binds
Substance: EPHB2 overexpressed from pLenti-CMV-GFP-Puro-EPHB2 (pri-EPHB2) (from UniProt P29323 19-1055) (receptor)
